This is an account of results in PMC2993708.

The test system of the series is GFP-CTCF + Flag-UBF. Description: EMSA. The following applies: EMSA: 20 mM Hepes pH 7.4, 20 mM KCl, 1 mM MgCl2, 5 mM DTT, 10 uM ZnCl2, 10% glycerol, 100 ug/ml BSA, 0.02% NP40, 2-4 ug salmon sperm DNA; room temperature 20 min; 5% gel; protein in a lysate after overexpression; protein details: GFP,Flag; label: 32P end label. For orientation: A gel shift assay detects complexes by their altered migration in electrophoresis.

The exact form of at least one protein or probe is not confirmed. Results from cells or extracts need not show a direct contact.

As to “TGTATGGTTGATCGAGACCATTGTCGGGCGACACCTAGTGGTGACAAGTTTCGGGAACGCTCCAGGCCTCT (double strand) [R30]”, the binding result is listed as “binds”.
